## Results of single-concentration screens

Sequences of proteins named here, by UniProt entry; tags and fusion partners are left off. Residues count along the entry.
UniProt I6X8D2, whole entry: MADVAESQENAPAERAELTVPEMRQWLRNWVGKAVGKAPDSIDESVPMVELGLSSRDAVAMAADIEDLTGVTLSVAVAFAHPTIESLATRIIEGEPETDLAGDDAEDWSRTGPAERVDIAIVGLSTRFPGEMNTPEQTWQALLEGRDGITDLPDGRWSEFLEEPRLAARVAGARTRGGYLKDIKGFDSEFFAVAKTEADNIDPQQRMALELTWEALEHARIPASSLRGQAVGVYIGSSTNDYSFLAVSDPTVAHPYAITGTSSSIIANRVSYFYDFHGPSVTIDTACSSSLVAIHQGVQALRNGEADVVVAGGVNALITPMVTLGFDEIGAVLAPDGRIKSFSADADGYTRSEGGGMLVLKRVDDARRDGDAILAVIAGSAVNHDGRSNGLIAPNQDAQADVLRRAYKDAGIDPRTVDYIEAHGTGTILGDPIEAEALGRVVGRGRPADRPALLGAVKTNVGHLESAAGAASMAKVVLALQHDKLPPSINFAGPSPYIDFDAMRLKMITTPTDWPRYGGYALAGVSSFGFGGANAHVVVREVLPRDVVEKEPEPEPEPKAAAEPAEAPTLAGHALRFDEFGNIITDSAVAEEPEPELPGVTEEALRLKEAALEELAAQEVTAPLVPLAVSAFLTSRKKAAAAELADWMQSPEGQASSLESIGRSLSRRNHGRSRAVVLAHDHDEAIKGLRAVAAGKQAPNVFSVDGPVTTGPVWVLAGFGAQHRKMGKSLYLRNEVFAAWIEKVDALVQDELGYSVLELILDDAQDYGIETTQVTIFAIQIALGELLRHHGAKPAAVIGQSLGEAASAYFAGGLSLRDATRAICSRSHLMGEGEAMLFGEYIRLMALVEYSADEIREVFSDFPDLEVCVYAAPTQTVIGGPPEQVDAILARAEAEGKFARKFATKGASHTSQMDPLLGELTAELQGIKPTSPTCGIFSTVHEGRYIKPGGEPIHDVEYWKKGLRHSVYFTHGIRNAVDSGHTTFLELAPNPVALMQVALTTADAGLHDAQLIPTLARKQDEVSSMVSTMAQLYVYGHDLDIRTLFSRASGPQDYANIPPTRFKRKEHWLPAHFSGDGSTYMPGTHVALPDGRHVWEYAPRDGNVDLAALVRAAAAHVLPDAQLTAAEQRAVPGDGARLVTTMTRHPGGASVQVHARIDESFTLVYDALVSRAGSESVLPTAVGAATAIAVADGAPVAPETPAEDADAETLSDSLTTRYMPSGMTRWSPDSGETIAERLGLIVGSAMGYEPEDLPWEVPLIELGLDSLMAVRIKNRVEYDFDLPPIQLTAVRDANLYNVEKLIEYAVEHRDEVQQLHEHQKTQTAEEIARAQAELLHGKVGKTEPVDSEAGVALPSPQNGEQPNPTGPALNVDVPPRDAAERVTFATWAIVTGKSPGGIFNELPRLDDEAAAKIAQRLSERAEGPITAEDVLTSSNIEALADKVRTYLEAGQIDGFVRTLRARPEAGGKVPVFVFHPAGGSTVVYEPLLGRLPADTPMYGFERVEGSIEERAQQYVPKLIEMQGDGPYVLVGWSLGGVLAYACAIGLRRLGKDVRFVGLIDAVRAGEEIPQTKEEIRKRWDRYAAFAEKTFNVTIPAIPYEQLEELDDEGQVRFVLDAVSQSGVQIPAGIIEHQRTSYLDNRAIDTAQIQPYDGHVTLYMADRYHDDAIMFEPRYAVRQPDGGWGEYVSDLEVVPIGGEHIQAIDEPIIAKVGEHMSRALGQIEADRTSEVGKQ
UniProt Q4DA54, 1-478: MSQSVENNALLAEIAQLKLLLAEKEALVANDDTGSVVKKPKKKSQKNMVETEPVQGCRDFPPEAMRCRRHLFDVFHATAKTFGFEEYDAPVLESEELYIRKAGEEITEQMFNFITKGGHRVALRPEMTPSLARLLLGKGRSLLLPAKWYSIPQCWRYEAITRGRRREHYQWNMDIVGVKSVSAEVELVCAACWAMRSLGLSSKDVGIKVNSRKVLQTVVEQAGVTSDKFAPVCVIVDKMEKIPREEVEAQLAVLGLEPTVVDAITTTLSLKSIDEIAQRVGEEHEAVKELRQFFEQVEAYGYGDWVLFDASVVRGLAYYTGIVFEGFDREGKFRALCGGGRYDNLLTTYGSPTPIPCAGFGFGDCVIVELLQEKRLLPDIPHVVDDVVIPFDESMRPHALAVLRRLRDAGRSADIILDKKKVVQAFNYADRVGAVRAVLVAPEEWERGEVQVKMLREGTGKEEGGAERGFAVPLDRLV
UniProt P9WFT3, whole entry: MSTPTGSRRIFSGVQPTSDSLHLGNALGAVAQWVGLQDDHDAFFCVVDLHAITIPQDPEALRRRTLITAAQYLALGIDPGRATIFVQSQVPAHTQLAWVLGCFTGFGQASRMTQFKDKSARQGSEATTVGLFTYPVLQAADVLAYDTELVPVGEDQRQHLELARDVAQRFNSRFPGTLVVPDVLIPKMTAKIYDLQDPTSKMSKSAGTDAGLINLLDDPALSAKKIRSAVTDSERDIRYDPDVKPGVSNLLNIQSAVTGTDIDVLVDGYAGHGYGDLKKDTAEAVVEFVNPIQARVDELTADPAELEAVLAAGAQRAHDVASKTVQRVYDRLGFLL
UniProt P9WPC5, whole entry: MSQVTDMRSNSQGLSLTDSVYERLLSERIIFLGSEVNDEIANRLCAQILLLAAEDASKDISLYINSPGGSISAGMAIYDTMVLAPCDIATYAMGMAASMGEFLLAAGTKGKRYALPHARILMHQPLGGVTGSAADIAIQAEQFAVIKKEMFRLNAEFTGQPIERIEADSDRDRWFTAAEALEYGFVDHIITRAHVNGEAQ
UniProt P9WPC3, whole entry partner: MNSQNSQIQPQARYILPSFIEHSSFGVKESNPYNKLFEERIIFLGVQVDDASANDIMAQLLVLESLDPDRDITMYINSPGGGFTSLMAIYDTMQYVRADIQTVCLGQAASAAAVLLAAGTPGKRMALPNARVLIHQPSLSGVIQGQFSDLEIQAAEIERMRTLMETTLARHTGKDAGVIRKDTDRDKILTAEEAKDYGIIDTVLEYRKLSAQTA

Source: ChEMBL document CHEMBL3988442, “University of Dundee, Small-Polar-MMV Screening Library” (2021).

Pks13 thioesterase: 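Polyketide synthase Pks13, Mycobacterium tuberculosis (UniProt I6X8D2). Enzyme assay of the thioesterase domain of polyketide synthase 13; the read-out is not stated. Concentration: 30 µM. The record gives no direction; the compounds picked for IC50 retests had high values, so higher reads as stronger inhibition. Size under these conditions: about 67,000 compounds, about 300 of them at 50% or above in at least one test.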
TcHisRS: 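Enzyme assay of histidyl-tRNA synthetase; the read-out is not stated. Target: Histidine-tRNA ligase, Trypanosoma cruzi CL Brener (UniProt Q4DA54). Compounds at 30 µM. The record gives no direction; compounds that gave an IC50 in retests scored well above the rest, so higher reads as stronger inhibition. Of about 69,000 compounds tested this way, about 31 (0.045%) reached 50% or more in at least one test.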
MtTrpRS: 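Tryptophan-tRNA ligase, Mycobacterium tuberculosis (UniProt P9WFT3). Enzyme assay of tryptophanyl-tRNA synthetase; the read-out is not stated. Concentration: 10 µM. Higher most likely means stronger inhibition; the record gives no direction and few retests gave an IC50. Of about 65,000 compounds tested this way, about 64 (0.098%) reached 50% or more in at least one test.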
ClpP1P2: 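Protease assay of ClpP1P2, read by the AMC dye that it sets free. Target: ClpP1P2, Mycobacterium tuberculosis (UniProt P9WPC5 and UniProt P9WPC3). Concentration: 50 µM. Higher reads as stronger inhibition, judged from the few compounds that gave an IC50. Most other retested compounds had strongly negative values. Of about 69,000 compounds tested this way, about 10 (0.015%) reached 50% or more in at least one test.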

The filed quantity is “Percent Effect” (%). The controls that fix the scale are not given in the record; negative values are as filed. The compounds are a random part of those screened.

structure: O=C(NC[C@H]1CC[C@H](c2ccnc3ncnn32)CC1)C1CC1
Pks13 thioesterase: -24.02
TcHisRS: 0
MtTrpRS: 11.89
ClpP1P2: 3.024

structure: CC(C)c1nc2c(n1C)CCN(Cc1nc(-c3ccco3)no1)C2
Pks13 thioesterase: -9.233
TcHisRS: 6.433
MtTrpRS: -8.205
ClpP1P2: -24.42

structure: COC(=O)CCC(=O)N1CCC2(CN(Cc3cccc(F)c3)C2)C1
Pks13 thioesterase: 4.07
TcHisRS: 4.865
MtTrpRS: -3.043
ClpP1P2: -5.351

structure: CCCC(=O)N1CCC(Cc2ccccc2-c2ccccc2)(C(N)=O)C1 (centres unmarked)
Pks13 thioesterase: -10.58
TcHisRS: 6.742
ClpP1P2: -5.784

structure: Nc1cc(C(=O)NCC2CCN(Cc3cccc(O)c3)C2)ccn1 (centres unmarked)
Pks13 thioesterase: -14.26
TcHisRS: 0
MtTrpRS: -0.4515
ClpP1P2: -10.55

structure: CCOc1cc(CN2CCCC2)ccc1Oc1cccc(C#N)n1
Pks13 thioesterase: -12.69
TcHisRS: 8.642
MtTrpRS: -1.667
ClpP1P2: -15.12

structure: CN1CCC2(CCCN(S(=O)(=O)c3ccc(-c4cnco4)s3)C2)C1 (centres unmarked)
Pks13 thioesterase: -10.25
TcHisRS: 8.155
MtTrpRS: -1.708
ClpP1P2: -4.287

structure: COc1ccc([C@@H]2CN(Cc3ccncc3)C[C@H]2N(C)C)cc1
Pks13 thioesterase: -17.28
TcHisRS: 3.483
MtTrpRS: -9.71
ClpP1P2: -16.67

structure: Cn1nc(CO)c2c1CCN(c1ncnc3c1CCNC3)C2
Pks13 thioesterase: -18.5
TcHisRS: 4.741
MtTrpRS: 4.48
ClpP1P2: 2.632

structure: Cc1cccc(-c2noc(CN3CCOC(Cn4cccn4)C3)n2)c1 (centres unmarked)
Pks13 thioesterase: -23.01
TcHisRS: 5.917
MtTrpRS: -11.11
ClpP1P2: -41.56

structure: Cc1noc([C@@]23CCO[C@@H]2CCN(C(=O)c2cc(C)on2)C3)n1
Pks13 thioesterase: -25.72
TcHisRS: 3.483
MtTrpRS: -5.483
ClpP1P2: -10.83

structure: CCCn1nccc1-c1cc(C2CCN(S(C)(=O)=O)CC2)ccn1
Pks13 thioesterase: 3.305
TcHisRS: 2.281
MtTrpRS: -4.392
ClpP1P2: -9.887

structure: Cc1nc(CN2CCCC(Cn3cncn3)C2)nc2ccccc12 (centres unmarked)
Pks13 thioesterase: -41.02
TcHisRS: 9.038
MtTrpRS: 17.22
ClpP1P2: -23.58

structure: COc1ccc(OC2CCN(C(=O)[C@@H](N)Cc3c[nH]cn3)CC2)cc1
Pks13 thioesterase: -8.811
TcHisRS: 10
MtTrpRS: 2.056
ClpP1P2: -7.539

structure: Cc1ccc(CN2CC[C@H](c3nnc(-c4ccco4)o3)C2)cc1
Pks13 thioesterase: 23.65
TcHisRS: -1.087
MtTrpRS: -2.049
ClpP1P2: 8.051

structure: Cc1cc(CNC(=O)C2CCCCN2C(=O)OC(C)(C)C)no1 (centres unmarked)
Pks13 thioesterase: -3.786
TcHisRS: 2.542
MtTrpRS: 0.5029
ClpP1P2: 1.668

structure: COc1ccc([C@@H]2CN(c3cc(OC)nc(N)n3)C[C@H]2N(C)C)cc1
Pks13 thioesterase: -36.97
TcHisRS: 17.11
MtTrpRS: 2.27
ClpP1P2: -4.93

For reference, 2 entries once more:

With CCCC(=O)N1CCC(Cc2ccccc2-c2ccccc2)(C(N)=O)C1 (centres unmarked) the screen gave Pks13 thioesterase: -10.58%; TcHisRS: 6.742%; ClpP1P2: -5.784%.
With Cc1noc([C@@]23CCO[C@@H]2CCN(C(=O)c2cc(C)on2)C3)n1 the screen gave Pks13 thioesterase: -25.72%; TcHisRS: 3.483%; MtTrpRS: -5.483%; ClpP1P2: -10.83%.